In the supplement of paper PMC10037445:
What follows is the remainder of the data, with few or none of the highest values.

Key:
RAW-Dual [1] = test: IRF Lucia reporter activity, fold change vs agonist alone; higher = enhanced IRF activity; conditions: library stock concentration (final ~1000-fold dilution): 10 mM, cytotoxicity flag (confluency mask): not cytotoxic
In short: (§1)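 RAW-Dual macrophages were seeded in DMEM at 50,000 cells/well in 384-well plates, given 50 nL of library stock by pin tool, and given a PRR agonist 1 h later. Plates were held at 37 °C, 5% CO2 for 20 hours, after which supernatant was read for IRF by QuantiLuc luminescence and for NF-κB by QuantiBlue absorbance at 620 nm. Reporter activity is expressed as fold change over wells that received agonist alone. A well was called cytotoxic when IncuCyte confluency fell below 70% of agonist controls in both mask sets.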

RAW-Dual [2] = test: NF-kB SEAP reporter activity, fold change vs agonist alone; higher = enhanced NF-kB activity; conditions: library stock concentration (final ~1000-fold dilution): 10 mM, cytotoxicity flag (confluency mask): not cytotoxic
In short: as §1

[3] = agonist: 3'3'-cGAMP (STING) 10 ug/mL
[4] = agonist: MPLA (TLR4) 0.25 ug/mL
[5] = agonist: Imiquimod (TLR7) 2.5 ug/mL
[6] = agonist: ODN 1826 (TLR9) 0.5 ug/mL
[7] = agonist: Pam2CSK4 (TLR2/6) 0.1 ug/mL
[8] = agonist: Pam3CSK4 (TLR2/1) 0.1 ug/mL

Row | SMILES | IRF Lucia reporter activity (RAW-Dual [1]; [3]) | IRF Lucia reporter activity (RAW-Dual [1]; agonist: LPS (TLR4) 0.1 ug/mL) | IRF Lucia reporter activity (RAW-Dual [1]; [4]) | NF-kB SEAP reporter activity (RAW-Dual [2]; [5]) | NF-kB SEAP reporter activity (RAW-Dual [2]; agonist: LPS (TLR4) 0.1 ug/mL) | NF-kB SEAP reporter activity (RAW-Dual [2]; [4]) | NF-kB SEAP reporter activity (RAW-Dual [2]; [6]) | NF-kB SEAP reporter activity (RAW-Dual [2]; [7]) | NF-kB SEAP reporter activity (RAW-Dual [2]; [8])
1 | Cc1ccccc1-n1c(Cn2nc(-c3cccc(O)c3)c3c(N)ncnc32)nc2cccc(C)c2c1=O | 0.788 | 1.2 | 1.16 | 0.966 | 1.33 | 0.817 | 0.767 | 0.575 | 0.657
2 | Cc1ccc(C(=O)NCCCCCC(=O)Nc2ccccc2N)cc1 | 0.12 | 0.197 | 0.25 | 1.28 | 3.44 | 1.7 | 1.92 | 0.778 | 1.06
3 | Cc1nc2c(-c3cnc(N)nc3)nc(N3CCOCC3)nc2n1C(C)C | 0.256 | 0.756 | 0.723 | 0.792 | 1.09 | 1.33 | 0.59 | 0.447 | 0.448
4 | Br.CN1C2CCC1CC(OC(=O)C(O)c1ccccc1)C2 (stereo not given) | 1.12 | 0.938 | 1.09 | 0.922 | 1.29 | 1.01 | 0.933 | 1.09 | 1.12
5 | COC(=O)C(CCCNC(=N)N)NS(=O)(=O)c1ccc(C)cc1 (stereo not given) | 1.04 | 1.04 | 0.97 | 0.964 | 0.99 | 0.988 | 1.02 | 0.996 | 0.977
